These results are taken from the supplement of paper PMC10849652.

Sequences of proteins named here, by UniProt entry; tags and fusion partners are left off. A change or cut given only in a name is not applied to a line headed by its entry.
UniProt P43155: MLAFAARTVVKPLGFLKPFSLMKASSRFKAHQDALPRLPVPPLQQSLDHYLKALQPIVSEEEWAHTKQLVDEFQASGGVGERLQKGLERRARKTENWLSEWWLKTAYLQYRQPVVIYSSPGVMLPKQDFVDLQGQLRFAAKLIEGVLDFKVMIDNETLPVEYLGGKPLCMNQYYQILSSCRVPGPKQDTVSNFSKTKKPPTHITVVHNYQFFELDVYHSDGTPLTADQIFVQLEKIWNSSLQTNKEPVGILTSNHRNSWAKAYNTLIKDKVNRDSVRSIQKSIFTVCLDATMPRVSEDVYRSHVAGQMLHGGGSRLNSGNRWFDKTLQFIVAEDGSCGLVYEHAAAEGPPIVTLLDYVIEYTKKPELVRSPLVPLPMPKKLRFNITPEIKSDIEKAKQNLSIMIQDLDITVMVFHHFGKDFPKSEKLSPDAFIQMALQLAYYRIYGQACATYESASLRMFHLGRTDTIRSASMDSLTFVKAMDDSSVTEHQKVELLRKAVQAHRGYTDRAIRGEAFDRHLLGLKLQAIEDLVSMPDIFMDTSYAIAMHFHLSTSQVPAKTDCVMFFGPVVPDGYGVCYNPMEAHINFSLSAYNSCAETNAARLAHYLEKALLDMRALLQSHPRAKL
UniProt P13498: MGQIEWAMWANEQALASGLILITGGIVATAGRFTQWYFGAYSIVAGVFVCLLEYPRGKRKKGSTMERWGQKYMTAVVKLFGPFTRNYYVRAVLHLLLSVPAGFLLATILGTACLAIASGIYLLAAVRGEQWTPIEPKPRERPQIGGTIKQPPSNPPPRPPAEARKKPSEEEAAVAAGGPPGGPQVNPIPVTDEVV
UniProt P17812: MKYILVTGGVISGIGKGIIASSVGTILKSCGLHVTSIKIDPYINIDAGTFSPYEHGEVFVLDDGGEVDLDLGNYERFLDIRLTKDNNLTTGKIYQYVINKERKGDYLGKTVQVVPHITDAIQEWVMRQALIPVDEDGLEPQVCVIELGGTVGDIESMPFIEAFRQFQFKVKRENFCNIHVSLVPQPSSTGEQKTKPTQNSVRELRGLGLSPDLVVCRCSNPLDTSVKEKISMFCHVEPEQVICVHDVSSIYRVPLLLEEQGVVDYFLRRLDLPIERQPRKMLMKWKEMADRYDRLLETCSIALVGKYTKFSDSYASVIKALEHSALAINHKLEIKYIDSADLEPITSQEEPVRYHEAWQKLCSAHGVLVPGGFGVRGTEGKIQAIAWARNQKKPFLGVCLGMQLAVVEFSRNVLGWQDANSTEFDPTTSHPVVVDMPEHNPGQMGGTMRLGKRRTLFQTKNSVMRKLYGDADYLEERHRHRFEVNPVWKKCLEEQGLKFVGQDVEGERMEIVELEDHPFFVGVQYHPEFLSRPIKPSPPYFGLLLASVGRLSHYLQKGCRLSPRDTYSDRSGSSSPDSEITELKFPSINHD
UniProt Q8N6G5: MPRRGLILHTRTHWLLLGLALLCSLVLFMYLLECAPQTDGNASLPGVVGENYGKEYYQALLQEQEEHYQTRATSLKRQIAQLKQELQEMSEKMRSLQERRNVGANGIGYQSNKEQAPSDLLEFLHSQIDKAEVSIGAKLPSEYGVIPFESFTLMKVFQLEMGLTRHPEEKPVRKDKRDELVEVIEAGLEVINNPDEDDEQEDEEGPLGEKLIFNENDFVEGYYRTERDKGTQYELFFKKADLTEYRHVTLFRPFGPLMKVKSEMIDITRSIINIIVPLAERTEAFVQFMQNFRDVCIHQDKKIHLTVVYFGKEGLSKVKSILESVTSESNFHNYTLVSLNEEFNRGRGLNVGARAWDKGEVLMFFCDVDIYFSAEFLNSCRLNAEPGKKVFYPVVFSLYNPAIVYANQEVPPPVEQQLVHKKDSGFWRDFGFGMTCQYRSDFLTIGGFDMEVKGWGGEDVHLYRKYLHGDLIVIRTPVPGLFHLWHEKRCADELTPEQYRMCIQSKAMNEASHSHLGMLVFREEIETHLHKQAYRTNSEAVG
UniProt P04080: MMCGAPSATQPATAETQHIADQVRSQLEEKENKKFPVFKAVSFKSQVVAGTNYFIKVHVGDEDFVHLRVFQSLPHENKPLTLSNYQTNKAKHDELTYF
UniProt Q9Y2S2: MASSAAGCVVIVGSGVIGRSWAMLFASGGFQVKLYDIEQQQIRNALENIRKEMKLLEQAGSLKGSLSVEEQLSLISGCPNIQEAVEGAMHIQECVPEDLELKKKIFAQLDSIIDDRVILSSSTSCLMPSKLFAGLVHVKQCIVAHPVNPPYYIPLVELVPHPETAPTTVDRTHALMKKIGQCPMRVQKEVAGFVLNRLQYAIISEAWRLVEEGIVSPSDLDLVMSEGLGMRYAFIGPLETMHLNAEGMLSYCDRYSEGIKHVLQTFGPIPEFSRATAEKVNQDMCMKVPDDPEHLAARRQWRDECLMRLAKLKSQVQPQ
UniProt P49674: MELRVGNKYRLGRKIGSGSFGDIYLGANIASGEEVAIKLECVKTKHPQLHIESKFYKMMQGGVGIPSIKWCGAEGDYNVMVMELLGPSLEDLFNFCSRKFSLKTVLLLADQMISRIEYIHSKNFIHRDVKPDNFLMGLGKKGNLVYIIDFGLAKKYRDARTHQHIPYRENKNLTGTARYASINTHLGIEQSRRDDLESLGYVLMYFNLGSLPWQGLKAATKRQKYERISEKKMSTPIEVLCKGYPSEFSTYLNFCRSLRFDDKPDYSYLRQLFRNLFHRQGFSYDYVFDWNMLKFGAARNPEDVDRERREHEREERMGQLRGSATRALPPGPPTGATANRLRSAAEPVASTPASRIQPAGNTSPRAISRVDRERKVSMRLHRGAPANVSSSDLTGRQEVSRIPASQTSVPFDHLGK
UniProt Q9Y6M4: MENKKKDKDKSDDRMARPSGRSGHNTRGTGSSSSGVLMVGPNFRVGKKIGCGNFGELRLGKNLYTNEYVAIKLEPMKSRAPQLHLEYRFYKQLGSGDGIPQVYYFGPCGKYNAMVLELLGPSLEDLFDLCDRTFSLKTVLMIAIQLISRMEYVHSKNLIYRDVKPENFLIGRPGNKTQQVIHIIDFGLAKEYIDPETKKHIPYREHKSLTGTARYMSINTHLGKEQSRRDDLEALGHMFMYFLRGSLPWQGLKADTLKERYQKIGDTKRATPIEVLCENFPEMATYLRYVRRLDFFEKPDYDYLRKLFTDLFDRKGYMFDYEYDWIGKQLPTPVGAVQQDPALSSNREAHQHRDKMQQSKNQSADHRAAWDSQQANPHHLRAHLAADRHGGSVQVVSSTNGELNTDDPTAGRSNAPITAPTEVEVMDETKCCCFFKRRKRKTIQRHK
UniProt P49447: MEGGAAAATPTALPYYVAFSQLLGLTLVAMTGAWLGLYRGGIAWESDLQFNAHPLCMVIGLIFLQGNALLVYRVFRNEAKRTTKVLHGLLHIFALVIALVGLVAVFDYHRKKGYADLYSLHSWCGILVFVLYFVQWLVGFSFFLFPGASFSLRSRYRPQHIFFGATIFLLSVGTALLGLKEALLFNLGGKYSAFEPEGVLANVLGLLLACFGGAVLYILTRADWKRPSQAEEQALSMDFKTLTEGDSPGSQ
UniProt O95196: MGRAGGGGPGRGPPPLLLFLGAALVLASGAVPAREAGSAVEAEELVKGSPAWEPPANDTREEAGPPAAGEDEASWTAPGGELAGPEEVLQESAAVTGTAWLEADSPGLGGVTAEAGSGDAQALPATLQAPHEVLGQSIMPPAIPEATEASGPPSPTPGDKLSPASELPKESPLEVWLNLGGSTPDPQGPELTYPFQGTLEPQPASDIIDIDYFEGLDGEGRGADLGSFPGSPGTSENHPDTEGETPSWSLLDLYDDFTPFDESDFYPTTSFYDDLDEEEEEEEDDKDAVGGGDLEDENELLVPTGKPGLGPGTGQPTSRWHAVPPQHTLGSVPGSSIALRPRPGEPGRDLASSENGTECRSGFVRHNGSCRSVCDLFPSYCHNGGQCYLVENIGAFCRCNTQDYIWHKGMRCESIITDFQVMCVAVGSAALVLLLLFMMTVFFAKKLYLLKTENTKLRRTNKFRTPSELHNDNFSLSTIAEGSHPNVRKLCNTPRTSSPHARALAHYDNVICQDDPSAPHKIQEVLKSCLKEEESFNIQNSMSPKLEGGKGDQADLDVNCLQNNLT
UniProt Q53TN4: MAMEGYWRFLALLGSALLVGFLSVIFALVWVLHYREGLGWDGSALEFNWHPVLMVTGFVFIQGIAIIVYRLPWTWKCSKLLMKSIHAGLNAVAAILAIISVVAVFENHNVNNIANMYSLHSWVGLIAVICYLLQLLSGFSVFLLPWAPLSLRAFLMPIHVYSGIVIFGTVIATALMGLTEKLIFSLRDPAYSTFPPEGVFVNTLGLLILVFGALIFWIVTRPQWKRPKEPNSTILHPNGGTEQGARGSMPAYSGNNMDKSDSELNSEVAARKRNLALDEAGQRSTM
UniProt P33240: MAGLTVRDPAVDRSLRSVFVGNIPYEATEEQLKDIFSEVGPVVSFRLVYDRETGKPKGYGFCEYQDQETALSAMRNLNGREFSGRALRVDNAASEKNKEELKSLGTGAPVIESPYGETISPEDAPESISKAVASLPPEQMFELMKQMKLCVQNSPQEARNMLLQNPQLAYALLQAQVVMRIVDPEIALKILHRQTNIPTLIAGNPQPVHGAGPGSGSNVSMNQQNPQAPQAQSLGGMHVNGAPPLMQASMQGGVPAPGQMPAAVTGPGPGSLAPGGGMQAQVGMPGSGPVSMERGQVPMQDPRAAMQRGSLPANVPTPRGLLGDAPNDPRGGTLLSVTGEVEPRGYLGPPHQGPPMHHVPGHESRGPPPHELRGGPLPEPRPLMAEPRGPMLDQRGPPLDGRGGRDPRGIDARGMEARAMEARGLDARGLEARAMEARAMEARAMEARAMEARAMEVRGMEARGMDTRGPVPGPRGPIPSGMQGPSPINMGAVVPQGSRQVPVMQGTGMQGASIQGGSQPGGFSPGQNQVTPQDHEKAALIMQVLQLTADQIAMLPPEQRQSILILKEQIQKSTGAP
UniProt Q9P013: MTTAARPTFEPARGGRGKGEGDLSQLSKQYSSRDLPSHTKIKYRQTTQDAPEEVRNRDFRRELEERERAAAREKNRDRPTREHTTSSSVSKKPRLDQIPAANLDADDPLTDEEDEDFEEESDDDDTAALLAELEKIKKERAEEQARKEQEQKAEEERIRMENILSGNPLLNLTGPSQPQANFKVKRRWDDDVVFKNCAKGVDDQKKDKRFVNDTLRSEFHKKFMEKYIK
UniProt P55060: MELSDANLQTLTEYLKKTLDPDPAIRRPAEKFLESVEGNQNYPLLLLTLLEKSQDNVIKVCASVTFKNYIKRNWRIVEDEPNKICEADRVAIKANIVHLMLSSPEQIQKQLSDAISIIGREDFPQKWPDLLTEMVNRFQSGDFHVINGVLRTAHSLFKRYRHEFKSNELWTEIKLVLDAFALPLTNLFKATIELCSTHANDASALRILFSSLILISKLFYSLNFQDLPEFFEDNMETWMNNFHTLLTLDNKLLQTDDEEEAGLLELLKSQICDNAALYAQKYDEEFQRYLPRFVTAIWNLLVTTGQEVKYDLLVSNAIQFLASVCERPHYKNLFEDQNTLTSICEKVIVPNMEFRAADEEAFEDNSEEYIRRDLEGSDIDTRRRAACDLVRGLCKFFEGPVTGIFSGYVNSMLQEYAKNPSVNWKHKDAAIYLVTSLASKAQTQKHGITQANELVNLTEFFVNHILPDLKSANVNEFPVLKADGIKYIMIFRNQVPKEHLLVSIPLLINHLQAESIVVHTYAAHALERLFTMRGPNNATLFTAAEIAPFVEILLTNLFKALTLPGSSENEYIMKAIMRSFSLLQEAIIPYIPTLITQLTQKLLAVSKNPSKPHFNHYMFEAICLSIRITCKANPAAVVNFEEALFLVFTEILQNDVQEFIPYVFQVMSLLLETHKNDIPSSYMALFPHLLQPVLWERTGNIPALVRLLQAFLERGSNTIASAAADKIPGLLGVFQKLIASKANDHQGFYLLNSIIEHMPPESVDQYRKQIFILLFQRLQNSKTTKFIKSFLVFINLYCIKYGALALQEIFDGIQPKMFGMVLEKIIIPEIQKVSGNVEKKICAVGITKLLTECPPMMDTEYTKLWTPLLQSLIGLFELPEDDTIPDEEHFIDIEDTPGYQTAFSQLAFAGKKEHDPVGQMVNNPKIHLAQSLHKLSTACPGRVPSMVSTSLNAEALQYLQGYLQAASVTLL

The other results are listed elsewhere or left out.

Holding throughout (assay): log2 fold change, soluble protein after heating vs DMSO (PISA); higher = thermal stabilisation; K562 lysate, 10 uM; active = over 0.2 and 3.5 SD of the protein, either way, in both replicates (recomputed)
Compound in assay [1]: C#Cc1cccc(Nc2ncnc3cc(OCCOC)c(OCCOC)cc23)c1 [erlotinib]
In outline:
(§1)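 Values give the log-two fold change in thermal stability against solvent controls, from duplicates. Crude K562 extract at 1 mg/mL protein, made by dounce homogenisation in PBS pH 7.4 with 1 mM MgCl2, was treated with 10 μM compound for 30 min. After 3 min heating across 48°C-58°C, aliquots were pooled, adjusted to 0.5% NP-40 at 4°C and centrifuged at 21,000xg for 90 min. The supernatant was measured by TMTpro 16plex LC-MS/MS with channel sums equalised.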

Compound in assay [2]: C/C(=N\NC(=O)C1=CC(=CC=C1)S(=O)(=O)N2CCOCC2)/C3=C(C=CC(=C3)Cl)O
In outline:
as §1

Compound in assay [3]: C1=CC(=CC=C1C2=NC3=C(N2)C=C(C=C3)C(=O)N)OC4=CC=C(C=C4)Cl
In outline: as §1

Compound in assay [4]: C1=CC2=C(C=CC(=C2)/C=C\3/C(=O)NC(=NCC4=CC=CS4)S3)N=C1
In outline: as §1

Compound in assay [5]: C1=CC2=NC=CN=C2C=C1/C=C/3\C(=O)NC(=O)S3
The gist of the method: as §1

Compound in assay [6]: C1=CC=C(C=C1)C2=NC(=C(N2)C3=CC=NC=C3)C4=CC(=C(C=C4)Cl)O
The gist of the method:
as §1

Compound in assay [7]: C1=CC=C2C(=C1)C3=NNC4=CC=CC(=C43)C2=O
The gist of the method: as §1

Compound in assay [8]: C1COCCN1CCN2C3=CC=CC=C3N=C2NC(=O)C4=CC(=CC=C4)[N+](=O)[O-] [IRAK-1-4 Inhibitor I]
The gist of the method:
as §1

Compound in assay [9]: C1CCN(C1)C(=O)NC2=CC=CC(=C2)NC3=NC=C(C(=N3)NCCC4=CN=CN4)Br
The gist of the method:
as §1

Compound in assay [10]: C1CN(CCC1(CC2=CC=C(C=C2)Cl)N)C3=NC=NC4=C3C=CN4
The gist of the method:
as §1

CRAT (UniProt P43155): the log2 fold change in assay [1] was inactive: 0.054; in [2], inactive: 0.043; in assay [3] it was inactive: 0.013; in assay [4] it was inactive: 0.03; in assay [5], inactive: -0.232; in assay [6], inactive: 0.031. The log2 fold change was inactive: -0.096 in assay [7] and inactive: 0.017 in assay [8].
For CYBA (UniProt P13498), the log2 fold change in [1] was inactive: -0.02; in assay [2], inactive: 0.084; in [3], inactive: -0.165; in assay [4] it was inactive: 0; in [5] it was inactive: -0.002; in [6], inactive: -0.03. Further, the log2 fold change was inactive: -0.037 in assay [7], inactive: -0.045 in assay [9], inactive: 0.019 in assay [10] and inactive: 0.012 in assay [8].
For CTPS1 (UniProt P17812), the log2 fold change is inactive: -0.002 in assay [1]; inactive: 0.011 in assay [2]; inactive: -0.027 in assay [3]; inactive: -0.009 in [4]; inactive: 0.005 in assay [5]; inactive: -0.013 in assay [6]. Further, the log2 fold change in assay [7] was inactive: -0.011; in assay [9] it was inactive: -0.007; in [10] it was inactive: -0.007; in assay [8], inactive: -0.001.
With CSGALNACT2 (UniProt Q8N6G5), the log2 fold change in [1] is inactive: 0.026; in assay [3], inactive: -0.257.
Turning to CSTB (UniProt P04080), the log2 fold change in [1] was inactive: -0.024; in assay [2], inactive: 0.054; in [3] it was inactive: -0.016; in assay [4], inactive: 0.018; in [5], inactive: 0.004; in assay [6] it was inactive: -0.028. Also, the log2 fold change in assay [7] is inactive: 0.031; in assay [9], inactive: -0.015; in assay [10], inactive: 0.031; in assay [8], inactive: 0.082.
Regarding CRYL1 (UniProt Q9Y2S2), the log2 fold change is inactive: -0.082 in assay [1]; inactive: -0.042 in assay [2]; inactive: 0.136 in assay [3]; inactive: 0.038 in assay [4]; inactive: -0.024 in [7].
Regarding CSNK1E (UniProt P49674), the log2 fold change in assay [1] is inactive: -0.003; in [2] it was inactive: 0.006; in assay [3] it was inactive: 0.161; in assay [4], inactive: 0.047; in assay [5], inactive: 0.018; in [6], active: 0.297. For the same target, the log2 fold change was active: 0.345 in [7], inactive: -0.056 in assay [9], inactive: 0.009 in [10] and inactive: -0.032 in [8].
Regarding CTBP1 (UniProt Q13363), the log2 fold change in assay [1] was inactive: 0.004; in assay [2], inactive: -0.002; in [3] it was inactive: 0.015; in assay [4], inactive: 0.02; in assay [5], inactive: 0.005; in [6] it was inactive: -0.025. The log2 fold change in [7] is inactive: -0.007; in assay [9], inactive: 0.001; in assay [10] it was inactive: -0.015; in [8] it was inactive: -0.01.
As to CSNK1G3 (UniProt Q9Y6M4), the log2 fold change in assay [1] is inactive: -0.115; in assay [2] it was inactive: -0.018; in assay [3] it was inactive: 0.097; in assay [4], inactive: 0.149; in assay [5], inactive: 0.073; in [6], inactive: -0.043. Further, the log2 fold change in assay [7] is inactive: 0.234; in [9], inactive: 0.018; in assay [10], inactive: 0.079; in [8] it was inactive: 0.022.
CYB561 (UniProt P49447): the log2 fold change in assay [1] was inactive: 0.136; in assay [2], inactive: -0.126; in assay [3], inactive: -0.076; in [4], inactive: 0.034; in assay [5], inactive: 0.019; in [6], inactive: 0.176. Also, the log2 fold change in [7] was inactive: 0; in assay [9] it was inactive: -0.014; in assay [10], inactive: 0.211; in [8], inactive: 0.136.
Consider CSPG5 isoform 2 (UniProt O95196), for which the log2 fold change in [1] is inactive: -0.448; in assay [2] it was inactive: 0.207; in [3], inactive: -0.109; in assay [4] it was inactive: -0.431; in [5] it was inactive: 0.108; in assay [6], inactive: -0.085. The log2 fold change in assay [7] was inactive: -0.066; in [8] it was inactive: 0.014.
For CYBRD1 (UniProt Q53TN4), the log2 fold change is inactive: -0.08 in [1]; inactive: 0.115 in [2]; inactive: 0.008 in [3]; inactive: -0.05 in assay [4]; inactive: 0.004 in assay [5]; inactive: -0.015 in assay [7].
Turning to CSTF2 (UniProt P33240), the log2 fold change in [1] was inactive: -0.036; in assay [2], inactive: -0.002; in assay [3], inactive: 0.048; in assay [4], inactive: -0.048; in assay [5] it was inactive: 0.044; in assay [6] it was inactive: 0.011. For the same target, the log2 fold change was inactive: -0.04 in assay [7], inactive: 0.002 in [9], inactive: 0 in [10] and inactive: 0.053 in assay [8].
Consider CWC15 (UniProt Q9P013), for which the log2 fold change in [1] was inactive: -0.025; in [2], inactive: 0; in assay [3], inactive: -0.035; in [4] it was inactive: 0.02; in assay [5] it was inactive: 0; in [6], inactive: 0.003. Also, the log2 fold change in assay [7] was inactive: 0.043; in assay [9] it was inactive: 0.012; in [10], inactive: -0.046; in assay [8] it was inactive: -0.002.
On to CSE1L (UniProt P55060), for which the log2 fold change is inactive: 0.034 in assay [1]; inactive: 0.034 in assay [2]; inactive: -0.006 in assay [3]; inactive: 0.004 in assay [4]; inactive: 0.023 in assay [5]; inactive: -0.019 in assay [6]. In addition, the log2 fold change was inactive: -0.016 in assay [7], inactive: -0.018 in assay [9], inactive: 0.012 in assay [10] and inactive: 0.011 in assay [8].
